Test results reported in PMC5509727.
These are yes or no findings as the source states them, for the method shown. In cells and extracts the contact can be indirect. Some binding calls cover weakened binding; strength is not graded here. Tags and fused reporters may be left off the sequences shown.

By UniProt entry, the sequences of proteins in these tests, tags left out.
UniProt P23743: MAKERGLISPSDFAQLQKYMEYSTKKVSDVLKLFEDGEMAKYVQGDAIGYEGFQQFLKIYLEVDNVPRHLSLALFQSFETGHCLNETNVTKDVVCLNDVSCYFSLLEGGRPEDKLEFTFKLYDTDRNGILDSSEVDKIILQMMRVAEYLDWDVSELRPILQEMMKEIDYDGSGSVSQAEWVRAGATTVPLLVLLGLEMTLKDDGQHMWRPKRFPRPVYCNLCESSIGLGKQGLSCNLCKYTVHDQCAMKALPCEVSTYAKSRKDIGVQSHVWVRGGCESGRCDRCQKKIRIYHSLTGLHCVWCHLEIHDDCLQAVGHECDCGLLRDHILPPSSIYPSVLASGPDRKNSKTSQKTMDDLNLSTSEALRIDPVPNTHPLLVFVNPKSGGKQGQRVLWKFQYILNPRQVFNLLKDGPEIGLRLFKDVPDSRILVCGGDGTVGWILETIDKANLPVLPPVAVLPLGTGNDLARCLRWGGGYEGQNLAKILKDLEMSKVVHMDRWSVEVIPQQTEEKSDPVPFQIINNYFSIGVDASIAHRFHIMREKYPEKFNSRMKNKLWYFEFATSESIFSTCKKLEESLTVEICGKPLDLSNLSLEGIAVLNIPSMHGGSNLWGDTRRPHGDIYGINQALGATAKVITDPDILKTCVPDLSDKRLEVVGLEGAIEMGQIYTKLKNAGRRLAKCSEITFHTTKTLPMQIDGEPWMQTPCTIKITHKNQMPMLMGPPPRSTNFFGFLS
UniProt P49619: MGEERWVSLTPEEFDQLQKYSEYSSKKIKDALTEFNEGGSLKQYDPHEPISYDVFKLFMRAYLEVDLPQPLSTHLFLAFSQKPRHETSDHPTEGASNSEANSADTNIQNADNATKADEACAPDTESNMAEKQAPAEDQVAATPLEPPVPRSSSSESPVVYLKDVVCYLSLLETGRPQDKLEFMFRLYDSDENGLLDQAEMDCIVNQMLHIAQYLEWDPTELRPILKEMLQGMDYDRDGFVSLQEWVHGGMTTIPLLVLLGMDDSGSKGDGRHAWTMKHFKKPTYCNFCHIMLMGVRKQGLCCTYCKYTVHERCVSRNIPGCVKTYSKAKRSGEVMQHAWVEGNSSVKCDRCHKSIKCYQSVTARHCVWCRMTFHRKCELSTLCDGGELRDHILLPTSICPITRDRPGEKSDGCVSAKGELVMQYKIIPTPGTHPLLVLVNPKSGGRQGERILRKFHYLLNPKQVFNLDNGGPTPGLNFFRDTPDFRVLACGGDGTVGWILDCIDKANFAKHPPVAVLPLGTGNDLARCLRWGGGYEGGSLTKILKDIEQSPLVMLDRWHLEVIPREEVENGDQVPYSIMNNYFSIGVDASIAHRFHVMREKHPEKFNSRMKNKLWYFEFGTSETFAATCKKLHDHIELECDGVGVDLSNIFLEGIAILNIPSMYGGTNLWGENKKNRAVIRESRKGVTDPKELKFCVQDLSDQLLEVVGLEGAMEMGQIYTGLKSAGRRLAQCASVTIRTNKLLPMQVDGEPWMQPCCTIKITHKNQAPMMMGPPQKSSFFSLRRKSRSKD
UniProt Q13574: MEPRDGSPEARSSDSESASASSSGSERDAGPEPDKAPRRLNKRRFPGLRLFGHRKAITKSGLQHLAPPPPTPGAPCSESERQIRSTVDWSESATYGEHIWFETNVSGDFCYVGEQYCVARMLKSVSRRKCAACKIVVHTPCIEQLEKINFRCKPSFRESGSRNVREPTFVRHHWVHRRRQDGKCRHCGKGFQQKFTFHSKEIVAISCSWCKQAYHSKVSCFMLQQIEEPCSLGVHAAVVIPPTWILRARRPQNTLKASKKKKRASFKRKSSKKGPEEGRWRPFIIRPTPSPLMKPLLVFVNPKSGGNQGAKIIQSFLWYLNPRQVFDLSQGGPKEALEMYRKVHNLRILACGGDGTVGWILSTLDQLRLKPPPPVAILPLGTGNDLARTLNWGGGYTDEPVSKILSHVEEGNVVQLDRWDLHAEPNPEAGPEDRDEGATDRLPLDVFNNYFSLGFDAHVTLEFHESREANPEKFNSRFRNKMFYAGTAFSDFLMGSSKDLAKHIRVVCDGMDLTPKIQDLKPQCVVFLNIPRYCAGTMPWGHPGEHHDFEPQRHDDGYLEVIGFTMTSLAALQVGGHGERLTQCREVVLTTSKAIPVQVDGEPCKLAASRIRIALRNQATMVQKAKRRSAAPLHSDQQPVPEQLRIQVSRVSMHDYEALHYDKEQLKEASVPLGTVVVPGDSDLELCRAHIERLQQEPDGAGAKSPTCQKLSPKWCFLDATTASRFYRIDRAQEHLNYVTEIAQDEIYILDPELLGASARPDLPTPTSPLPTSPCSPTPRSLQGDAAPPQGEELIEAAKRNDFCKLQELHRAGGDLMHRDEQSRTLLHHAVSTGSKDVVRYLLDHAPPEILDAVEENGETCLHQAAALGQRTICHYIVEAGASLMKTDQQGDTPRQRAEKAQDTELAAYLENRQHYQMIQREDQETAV
UniProt O75912: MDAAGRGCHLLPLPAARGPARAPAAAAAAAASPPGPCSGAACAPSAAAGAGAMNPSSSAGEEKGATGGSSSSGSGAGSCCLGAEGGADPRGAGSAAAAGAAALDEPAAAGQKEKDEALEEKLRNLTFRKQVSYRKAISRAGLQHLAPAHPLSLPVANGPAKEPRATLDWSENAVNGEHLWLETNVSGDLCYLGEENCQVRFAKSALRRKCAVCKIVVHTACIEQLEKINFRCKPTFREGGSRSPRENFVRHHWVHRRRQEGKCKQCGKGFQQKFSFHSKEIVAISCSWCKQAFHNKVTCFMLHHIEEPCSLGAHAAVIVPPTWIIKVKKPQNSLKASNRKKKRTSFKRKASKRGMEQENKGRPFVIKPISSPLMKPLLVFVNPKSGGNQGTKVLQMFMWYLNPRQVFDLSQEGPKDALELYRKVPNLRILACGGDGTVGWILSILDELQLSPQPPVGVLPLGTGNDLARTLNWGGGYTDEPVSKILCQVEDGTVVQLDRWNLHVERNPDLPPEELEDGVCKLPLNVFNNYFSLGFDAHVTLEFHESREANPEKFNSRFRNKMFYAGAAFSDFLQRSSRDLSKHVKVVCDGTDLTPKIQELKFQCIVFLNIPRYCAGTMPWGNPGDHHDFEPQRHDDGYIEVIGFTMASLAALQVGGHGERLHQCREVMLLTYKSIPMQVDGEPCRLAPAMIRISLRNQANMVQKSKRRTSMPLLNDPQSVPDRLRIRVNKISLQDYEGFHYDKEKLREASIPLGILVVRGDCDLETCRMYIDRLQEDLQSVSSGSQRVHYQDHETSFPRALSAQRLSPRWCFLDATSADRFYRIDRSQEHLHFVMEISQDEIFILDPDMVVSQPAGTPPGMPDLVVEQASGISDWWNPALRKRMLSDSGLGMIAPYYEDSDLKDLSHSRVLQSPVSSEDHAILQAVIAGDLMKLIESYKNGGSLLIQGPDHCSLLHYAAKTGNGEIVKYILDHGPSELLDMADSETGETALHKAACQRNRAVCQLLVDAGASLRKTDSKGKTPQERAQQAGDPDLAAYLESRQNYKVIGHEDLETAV

Key:
Test in all cases: co-IP; 293T cells expressing FLAG-IFT88 and HA-tagged DGK isoforms; anti-HA immunoprecipitation, anti-FLAG blot; RIPA lysis
[1] = target: HA-DGKα (pCMV5-HA-hDGKα) (human) (UniProt P23743)
[2] = target: HA-DGKγ (pCMV5-HA-hDGKγ) (human) (UniProt P49619)
[3] = target: T1, HA-DGKδ (pCMV5-HA-hDGKδ) (human) (UniProt Q16760)
T1 sequence: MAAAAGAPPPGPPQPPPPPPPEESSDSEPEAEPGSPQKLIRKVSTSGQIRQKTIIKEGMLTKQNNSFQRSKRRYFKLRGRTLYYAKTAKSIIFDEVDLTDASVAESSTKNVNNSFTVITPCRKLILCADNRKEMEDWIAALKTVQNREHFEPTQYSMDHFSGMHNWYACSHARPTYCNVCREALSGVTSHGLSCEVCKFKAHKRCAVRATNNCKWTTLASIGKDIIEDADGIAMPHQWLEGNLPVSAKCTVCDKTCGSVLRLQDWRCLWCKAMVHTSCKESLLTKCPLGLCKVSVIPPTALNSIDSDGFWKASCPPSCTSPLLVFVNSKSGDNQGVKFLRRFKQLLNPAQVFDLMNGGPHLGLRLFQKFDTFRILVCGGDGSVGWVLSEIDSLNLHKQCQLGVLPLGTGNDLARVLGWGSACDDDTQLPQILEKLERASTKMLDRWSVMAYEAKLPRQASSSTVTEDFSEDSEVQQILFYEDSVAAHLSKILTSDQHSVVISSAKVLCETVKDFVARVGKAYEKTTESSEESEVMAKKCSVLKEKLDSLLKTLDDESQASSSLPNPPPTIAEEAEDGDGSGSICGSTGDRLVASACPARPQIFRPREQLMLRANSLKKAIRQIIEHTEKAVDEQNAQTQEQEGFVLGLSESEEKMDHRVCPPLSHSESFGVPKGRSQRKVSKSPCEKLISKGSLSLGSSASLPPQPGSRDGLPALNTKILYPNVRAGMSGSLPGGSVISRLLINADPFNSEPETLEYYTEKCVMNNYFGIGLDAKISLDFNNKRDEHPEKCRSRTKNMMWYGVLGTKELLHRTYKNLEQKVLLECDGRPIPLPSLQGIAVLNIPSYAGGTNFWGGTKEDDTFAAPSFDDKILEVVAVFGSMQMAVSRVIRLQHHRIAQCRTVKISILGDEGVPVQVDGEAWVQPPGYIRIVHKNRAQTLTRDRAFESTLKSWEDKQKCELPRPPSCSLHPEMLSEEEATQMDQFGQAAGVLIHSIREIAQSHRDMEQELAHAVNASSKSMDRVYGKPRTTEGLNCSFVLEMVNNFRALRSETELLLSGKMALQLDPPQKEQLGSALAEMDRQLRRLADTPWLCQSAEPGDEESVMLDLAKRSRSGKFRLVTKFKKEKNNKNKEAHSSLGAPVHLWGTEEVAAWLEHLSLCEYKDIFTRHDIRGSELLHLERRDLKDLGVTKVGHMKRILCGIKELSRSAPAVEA

[4] = target: T2, HA-DGKε (pCMV5-HA-hDGKε) (human) (UniProt P52429)
T2 sequence: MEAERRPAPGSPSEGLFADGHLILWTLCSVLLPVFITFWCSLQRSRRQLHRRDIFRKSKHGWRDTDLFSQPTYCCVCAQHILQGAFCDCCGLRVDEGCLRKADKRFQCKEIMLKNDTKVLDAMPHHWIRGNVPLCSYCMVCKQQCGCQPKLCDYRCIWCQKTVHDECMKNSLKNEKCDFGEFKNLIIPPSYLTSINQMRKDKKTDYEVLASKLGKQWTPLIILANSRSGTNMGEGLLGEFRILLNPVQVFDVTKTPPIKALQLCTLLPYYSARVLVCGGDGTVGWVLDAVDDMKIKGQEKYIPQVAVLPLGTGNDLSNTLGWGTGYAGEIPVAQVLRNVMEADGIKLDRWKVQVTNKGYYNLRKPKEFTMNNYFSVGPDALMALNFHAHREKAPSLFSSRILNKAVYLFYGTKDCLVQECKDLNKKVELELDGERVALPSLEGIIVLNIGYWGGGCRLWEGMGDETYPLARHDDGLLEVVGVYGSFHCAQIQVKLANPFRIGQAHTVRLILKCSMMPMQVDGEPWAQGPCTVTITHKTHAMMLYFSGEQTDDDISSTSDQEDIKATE

[5] = target: HA-DGKζ (pCMV5-HA-hDGKζ) (human) (UniProt Q13574)
[6] = target: HA-DGKι (pCMV5-HA-hDGKι) (human) (UniProt O75912)

Measured: binding

B1: FLAG-IFT88 (pCMV-IFT88-3XFLAG) (protein, UniProt Q61371 1-824)
chain: MENVHLAPETDEDDLYSGFNDYNPAYDTEELENDTGFQQAVRTSHGRRPPVTAKIPSTAVSRPIATGYGSKTSLTSSMGRPMTGTIQDGVARPMTAVRAAGFSKAALRGSAFDPLGQSRGPAPPLEAKNEDSPEEKIRQLEKKVNELVEESCIANSCGDLKLALEKAKDAGRKERVLVRQREQVTSPENINLDLTYSVLFNLASQYSANEMYAEALNTYQVIVKNKMFSNAGRLKVNMGNIYLKQRNYSKAIKFYRMALDQIPSVHKEMRIKIMQNIGITFIKTGQYSDAINSFEHIMSMAPSLKAGFNLILSCFAIGDREKMKKAFQKLIAVPLEIDEDDKYISPSDDPHTNLLIEAIKNDHLRQMERERKAMAEKYIMTAAKLIAPVIEASFAVGYNWCVEVVKASQYVELANDLEINKAITYLRQKDFNQAVDTLKMFEKKDSRVKSAAATNLSFLYYLENEFAQASSYADLAVNSDRYNPSALTNKGNTVFANGDYEKAAEFYKEALRNDSSCTEALYNIGLTYKKLNRLDEALDSFLKLHAILRNSAQVLCQIANIYELMEDPNQAIEWLMQLISVVPTDSQALSKLGELYDSEGDKSQAFQYYYESYRYFPSNIEVIEWLGAYYIDTQFCEKAIQYFERASLIQPTQVKWQLMVASCFRRSGNYQKALDTYKEIHRKFPENVECLRFLVRLCTDIGLKEVQEYATKLKRLEKMKEMREQRIKSGRDSSGGSRSKREGSAGSDSGQNNSASSKSERLSAKLRALPGTDEPYESSGNKEIDASYVDPLGPQIERPKTAAKKRIDEDDFADEELGDDLLPE
binds: [1] | [2] | [3] | [4] | [5] | [6]
